Source: PubChem BioAssay AID2551 (National Center for Advancing Translational Sciences (NCATS), 2010)
Screen size: about 310,000 compounds; about 17,000 (5.5%) were called active. Inconclusive means that the source gave no clear call. Such entries were picked first, then a sample of the others. Calls come from the whole dose curve; as a rule, active = well fitted inhibition curve with a large enough effect; inconclusive = small, poorly fitted or top-dose-only effect, or effect the other way; inactive = no such curve, though single readings can be large or run the other way. Potencies beside an inconclusive call are fits to weak or partial responses and may not hold up.

Amino acid sequences for entries named in this document (tags omitted). A change or cut given only in a name is not applied to a line headed by its entry.
UniProt P51450: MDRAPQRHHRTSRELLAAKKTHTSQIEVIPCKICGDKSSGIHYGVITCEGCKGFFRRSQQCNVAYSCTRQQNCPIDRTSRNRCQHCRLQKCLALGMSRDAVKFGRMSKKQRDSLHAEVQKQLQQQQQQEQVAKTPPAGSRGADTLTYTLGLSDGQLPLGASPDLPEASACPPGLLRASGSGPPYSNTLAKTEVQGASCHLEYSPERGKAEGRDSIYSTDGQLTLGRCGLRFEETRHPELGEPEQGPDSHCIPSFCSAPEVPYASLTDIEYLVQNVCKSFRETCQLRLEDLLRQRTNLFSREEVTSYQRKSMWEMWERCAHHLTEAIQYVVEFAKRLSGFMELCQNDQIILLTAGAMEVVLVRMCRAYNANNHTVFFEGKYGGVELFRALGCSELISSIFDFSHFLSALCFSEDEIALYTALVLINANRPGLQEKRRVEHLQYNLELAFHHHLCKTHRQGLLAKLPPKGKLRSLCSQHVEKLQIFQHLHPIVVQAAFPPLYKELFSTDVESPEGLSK

Target: Nuclear receptor ROR-gamma (Mus musculus) (UniProt P51450)
Assay: qHTS for inhibitors of ROR gamma transcriptional activity; note: nearly all actives have a fitted effect of over 60% in size
Conditions: Drosophila S2 Gal4-RORgamma UAS-luciferase reporter, 20 h; activity change, negative = inhibition: at 53.6 µM (top of the series)
Outline: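 Stable Schneider cell line, Gal4 DNA-binding domain fused to ROR gamma, UAS-luciferase. Cmpd 1 hr RT → CuSO4 700 uM final → 20 hr RT → luciferase reagent 10 min → luminescence.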
% is set by controls: 0 for no effect and ±100 for the full control effect; potency is the fitted concentration of half-maximal effect.

| SMILES | activity change, negative = inhibition | Potency |
| --- | --- | --- |
| COCC(=O)OCC(=O)c1cc(C)n(-c2ccc(Br)cc2)c1C | inactive: 5.86% |  |
| CC(C)c1nnc(NC(=O)C2c3ccccc3Oc3ccccc32)s1 |  | inconclusive: 35.5 µM [inhibitor, single point] |
| Cc1c(C(=O)Nc2ccccc2F)cnn1-c1ccccc1 | inactive: -0.752% |  |
| O=C(COC(=O)c1cccc2c1C(=O)c1ccccc1C2=O)NC1CCCCC1 |  | inconclusive: 10 µM [inhibitor, partial curve] |
| CCOC(=O)C1=C(C)C(c2cccc(Oc3ccccc3)c2)NC(=S)N1 (configuration not stated) |  | active: 7.08 µM |
| CN(C1=C(NC(=O)c2ccc(Cl)cc2)C(=O)c2ccccc2C1=O)c1ccccc1 |  | active: 11.2 µM |
| O=C(CSc1oc(-c2cccs2)nc1S(=O)(=O)c1ccc(F)cc1)NCC1CCCO1 (configuration not stated) |  | inconclusive: 10 µM [inhibitor, single point] |
| CCOc1ccccc1N=Cc1c(O)c2ccccc2oc1=O | inactive: -3.22% |  |
| Cc1nnc(-c2cccc(Br)c2)c2cn(-c3ccc(Br)cc3)nc12 |  | inconclusive: 11.2 µM [activator, partial curve] |
| O=C(/C=C/c1ccccc1Cl)N(Cc1ccc(Cl)cc1)C1CCS(=O)(=O)C1 (configuration not stated) |  | inconclusive: 22.4 µM [activator, single point] |
| O=C(CCn1c(=S)[nH]c2ccccc2c1=O)NCCSCc1ccccc1 |  | inconclusive: 35.5 µM [inhibitor, single point] |
| O=C(Nc1cc(S(=O)(=O)N2CCOCC2)ccc1N1CCCC1)c1ccc2c(c1)S(=O)(=O)c1ccccc1C2=O | inactive: -11.1% |  |
| Cc1cccc(NC(=O)c2sc(NC(=O)c3ccco3)c(C#N)c2C)c1C |  | inconclusive: 14.1 µM [activator, single point] |
| CCc1nnc(NC(=O)C2CC(=O)N(Cc3ccco3)C2)s1 (configuration not stated) |  | inconclusive: 11.2 µM [activator, partial curve] |
| O=C(NNC(=S)Nc1ccc(Cl)cc1Cl)c1ccncc1 |  | inconclusive: 17.8 µM [inhibitor, partial curve] |
| CN(C)[C@@H](CO)c1nnc([C@H](CC(=O)O)NC(=O)C2CCNCC2)o1 | inactive: -8.29% |  |
| COc1ccc(/C=N/NS(=O)(=O)c2ccccc2)cc1OS(=O)(=O)c1ccc(C)cc1 |  | inconclusive: 1.58 µM [inhibitor, partial curve, poor fit] |
| CCOC(=O)c1c(NC(=O)c2ccco2)n(C2CCCCC2)c2nc3ccccc3nc12 |  | inconclusive: 17.8 µM [inhibitor, single point] |
| CC(=O)c1ccc(NC(=O)N2CCc3ccccc3C2)cc1 | inactive: 6.01% |  |
| CCCc1nc2n[nH]c(N)c2c2c1CCCC2 |  | inconclusive: 8.91 µM [inhibitor, partial curve, poor fit] |
| Cc1cccc(C)c1NC(=S)Nc1ccc(F)cc1 |  | active: 10 µM |
| CCCOc1ccc(NC(=O)CC2C(=O)N(CC)C(=S)N2CCNC(C)=O)cc1 (configuration not stated) |  | inconclusive: 1.26 µM [activator, full curve, poor fit] |
| CCOc1ccc(NC(=S)NC(=O)/C=C/c2ccc(OC)c(OC)c2)c([N+](=O)[O-])c1 |  | active: 1.12 µM |
| COc1cccc(C2CC(c3ccccc3OC)n3ncnc3N2)c1 (configuration not stated) | inactive: 0.847% |  |

| SMILES | activity change, negative = inhibition | Potency |
| --- | --- | --- |
| O=C(CSc1nnc(-c2ccco2)o1)NC(=O)C1COc2ccccc2O1 (configuration not stated) |  | inconclusive: 35.5 µM [inhibitor, single point] |
| Brc1ccccc1OCCCOc1cccc2cccnc12 |  | inconclusive: 31.6 µM [inhibitor, single point] |
| COc1ccc(CSCCN)cc1Cl | inactive: 29.6% |  |
| c1cncc(-c2ccc3ncnc(N4CCNCC4)c3c2)c1 |  | inconclusive: 11.2 µM [activator, single point] |
| O=C1C2C(C(=O)N1/N=C/c1cc([N+](=O)[O-])ccc1O)C1C=CC2C12CC2 (configuration not stated) |  | inconclusive: 8.91 µM [inhibitor, partial curve, poor fit] |
| Cc1ccc(C)c(C(C)NC(=S)NCc2ccc(F)cc2)c1 (configuration not stated) |  | active: 5.01 µM |
| COc1cc(-c2cc(-c3ccccc3)nc(SCC(=O)Nc3nccs3)c2C#N)cc(OC)c1OC |  | inconclusive: 0.0056 µM [inhibitor, full curve, poor fit] |
| COc1ccc2cc(C3c4cc(OC)c(OC)cc4CCN3C(=O)c3ccco3)c(=O)[nH]c2c1 (configuration not stated) |  | inconclusive: 35.5 µM [activator, single point] |
| CC(C)n1c(CN(C)Cc2ccccc2)nc2c1c(=O)n(C)c(=O)n2C |  | inconclusive: 3.98 µM [inhibitor, single point] |
| Cc1ccc(-c2cc(C(=O)Nc3ccc(S(=O)(=O)Nc4onc(C)c4C)cc3)c3ccccc3n2)cc1 |  | inconclusive: 20 µM [activator, single point] |
| CCOc1cccc(/C=C/c2ccc3cccc(O)c3n2)c1OC |  | active: 2.82 µM |
| CCOC(=O)/C=C/C(=O)N1CCN(C(=O)/C=C/C(=O)OCC)CC1 | inactive: 4.1% |  |
| CCN(CC)c1ccc(/C=N/NC(=O)c2nnn(-c3nonc3N)c2-c2ccc(C)cc2)cc1 |  | active: 12.6 µM |
| C/C(=N\NC(=O)c1cccc([N+](=O)[O-])c1)c1ccco1 |  | inconclusive: 15.8 µM [inhibitor, single point] |
| COc1ccc(-n2c(Cc3cccn3C)nnc2SCC(=O)Nc2cccc(OC)c2)cc1 | inactive: 7.68% |  |
| CCc1cccc(C)c1NC(=S)N(CCN(C)C)C(C)c1ccco1 (configuration not stated) |  | inconclusive: 7.08 µM [inhibitor, partial curve] |
| O=[N+]([O-])c1ccc(Oc2cccc(F)c2)c2ccncc12 |  | inconclusive: 8.91 µM [inhibitor, partial curve] |
| O=C(Cc1ccccc1)Nc1ccc(NC(=O)c2ccccc2)nc1 |  | inconclusive: 7.94 µM [activator, partial curve] |
| Cn1c(SCC(=O)Nc2cccnc2)nnc1-c1ccccc1F |  | inconclusive: 12.6 µM [activator, partial curve] |
| Cc1ccc(NC(=O)c2ccc3c(c2)CCN3S(C)(=O)=O)c(C)c1 |  | inconclusive: 11.2 µM [activator, partial curve] |
| Cc1cc(NC(=O)c2sccc2C)n(-c2nc3ccccc3[nH]2)n1 |  | active: 1 µM |
| CC(C)(C)c1ccc(C(=O)Nc2cnccn2)cc1 |  | inconclusive: 10 µM [inhibitor, single point] |
| O=C(NC1CC1)c1ccc2c(Cl)c3c(nc2c1)CCCC3 |  | inconclusive: 5.01 µM [activator, partial curve] |
| CN(C)c1ccc(-c2cncnc2NCCN2CCOCC2)cc1 |  | inconclusive: 35.5 µM [inhibitor, single point] |

| SMILES | activity change, negative = inhibition | Potency |
| --- | --- | --- |
| Cc1ccc(-c2nc(CN3CCN(C(=O)C4CCCO4)CC3)cs2)cc1 (configuration not stated) |  | inconclusive: 11.2 µM [activator, partial curve] |
| Fc1ccccc1C1c2cccn2CCN1C(=S)Nc1ccc(Br)cc1 (configuration not stated) |  | inconclusive: 3.55 µM [inhibitor, single point] |
| Cc1c(C(=O)NCc2cccs2)oc2ccc(S(=O)(=O)N3CCOCC3)cc12 | inactive: 32.5% |  |
| CC(C)ON(C(C(=O)NO)C(C)C)S(=O)(=O)c1ccc(-c2ccccc2)cc1 (configuration not stated) |  | active: 10 µM |
| O=C(Nc1cccc(S(=O)(=O)N2CCCCCC2)c1)c1ccc2ccccc2n1 |  | inconclusive: 11.2 µM [activator, partial curve] |
| Brc1cccc(-c2nnco2)c1 |  | active: 20 µM |
| CC(=O)Nc1ccc(S(=O)(=O)Nc2ccc3c(c2)OCO3)cc1 |  | inconclusive: 12.6 µM [activator, single point] |
| COc1ccc(C2=NN(C(=O)CSc3ncccn3)C(c3ccc(OC)cc3)C2)cc1 (configuration not stated) |  | inconclusive: 11.2 µM [activator, partial curve, poor fit] |
| CCn1nc(C(=O)Nc2nc3ccc(C)cc3s2)c2ccccc2c1=O | inactive: 7.82% |  |
| CCOc1ccc(CCNC(=O)CCNC(=O)c2ccccc2Cl)cc1OCC | inactive: 2.86% |  |
| COCCNS(=O)(=O)c1ccc(-c2ccc(C)cc2)cc1 |  | inconclusive: 35.5 µM [activator, single point] |
| S=c1[nH]c2ccccc2o1 |  | active: 28.2 µM |
| COc1ccccc1NC(=O)c1ccc(NC(=O)CSc2nnnn2C)cc1 |  | inconclusive: 22.4 µM [inhibitor, single point] |
| CC(=O)N1N=C(c2ccc(C(C)(C)C)cc2)OC1(C)C |  | inconclusive: 15.8 µM [activator, partial curve] |
| COCCn1c(C)cc(C2=NNC(=Nc3ccccc3F)SC2)c1C |  | active: 0.794 µM |
| Cc1cccc(C)c1N=C1C(=O)Nc2ccccc21 |  | inconclusive: 8.91 µM [activator, partial curve] |
| Cc1ccccc1NC(=S)NCc1ccc(Cl)cc1 |  | active: 2.82 µM |
| COc1ccccc1N1CCN(C(=O)c2ccc([N+](=O)[O-])s2)CC1 |  | active: 7.94 µM |
| COC(=O)C(Cc1ccc(O)cc1)NC(=O)c1ccc2c(c1)OCCO2 (configuration not stated) |  | active: 0.631 µM |
| Cn1c(-c2ccc(F)cc2)cnc1SCC(=O)NNC(=O)Cc1ccccc1 | inactive: -1.11% |  |
| Cc1ccc(NC(=O)c2nc(S(=O)(=O)Cc3ccccc3)ncc2Cl)cc1 |  | inconclusive: 22.4 µM [inhibitor, single point] |
| Cc1ccc(/C=N/NC(=O)c2ccncc2)cc1 | inactive: -11.4% |  |
| Cn1cccc1C(=O)N1CCC[C@@]2(CCN(Cc3cc(C(F)(F)F)cc(C(F)(F)F)c3)C2)C1 |  | inconclusive: 35.5 µM [activator, single point] |
| CC(=O)Nc1ccc(SCc2csc(C)n2)cc1 |  | inconclusive: 20 µM [activator, partial curve, poor fit] |

Fetched by structure from above:

| SMILES | activity change, negative = inhibition | Potency |
| --- | --- | --- |
| Brc1cccc(-c2nnco2)c1 |  | active: 20 µM |
| CC(C)ON(C(C(=O)NO)C(C)C)S(=O)(=O)c1ccc(-c2ccccc2)cc1 (configuration not stated) |  | active: 10 µM |
| O=C(Nc1cccc(S(=O)(=O)N2CCCCCC2)c1)c1ccc2ccccc2n1 |  | inconclusive: 11.2 µM [activator, partial curve] |
| CC(=O)Nc1ccc(SCc2csc(C)n2)cc1 |  | inconclusive: 20 µM [activator, partial curve, poor fit] |
| COc1ccccc1N1CCN(C(=O)c2ccc([N+](=O)[O-])s2)CC1 |  | active: 7.94 µM |
